PubChem BioAssay AID652243 – Drosophila RNAi Screening Center | 2013
Purpose: 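Fly genes required for human androgen receptor driven transcription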 (primary screen). Cell system: Drosophila S2R+ cells. Reagent: long dsRNA against Drosophila genes. Timing: 72 h (48 h, then 24 h hormone). Conditions: synthetic androgen R1881 at 10 nM for 24 h. Detection: 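Firefly light from an androgen-responsive reporter and Renilla control light per well, raw and unnormalised, for each of two replicates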. Direction: firefly reporter light: higher = more light from androgen-responsive reporter; Renilla control light: higher = more constitutive control signal (cell number, transfection). Hit rule: 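Across duplicate plates, a knock-down whose log firefly/Renilla ratio shifted a set fold down or up from the GFP/LacZ control mean was a hit; the downward cut appears as both 1.5 and 3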. Calls: active = hit: reporter lowered or raised; inactive = no hit.
The deposit covers about 24,000 reagents; shown is an unselected part of those with a known target gene and a result. Of all reagents, 246 (1%) got an active call. 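Plates not normalised; calls are printed but the firefly/Renilla ratio behind them is not deposited; fold cut for lowering reported inconsistently.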 Raw values vary from plate to plate and are shown uncorrected. A plus sign joins genes that one reagent is predicted to hit. Not stated in the record: the amount of reagent.

gene	dsRNA	firefly reporter light, replicate 1	firefly reporter light, replicate 2	Renilla control light, replicate 1	Renilla control light, replicate 2	call
Or45b	DRSC07488	3.75e5	2.22e5	1.84e6	1.75e6	inactive
Rrp1	DRSC00784	7.08e5	7.24e5	1.68e6	1.98e6	inactive
Rrp1	DRSC26575	3.28e5	3.19e5	7.43e5	7.08e5	inactive
Gr85a	DRSC12760	68773	97051	2.57e5	1.31e5	inactive
CG31776	DRSC00716	1.22e5	1.46e5	9.00e5	1.01e6	inactive
Ttd14	DRSC06632	4.72e5	5.15e5	8.51e5	6.70e5	inactive
Ttd14	DRSC06942	1.64e5	2.05e5	1.57e6	2.15e6	inactive
hkb	DRSC12377	4.20e5	7.66e5	1.31e6	2.04e6	inactive
hkb	DRSC23599	5.18e5	3.72e5	3.97e5	4.01e5	inactive
CG10710	DRSC09784	1.55e5	1.33e5	1.73e6	1.75e6	inactive
Dhc1	DRSC16503	1.36e5	2.40e5	2.81e6	2.78e6	active
Su(fu)	DRSC16871	44415	63090	4.69e5	6.70e5	inactive
CenB1A	DRSC16923	7.55e5	8.86e5	1.74e6	1.70e6	inactive
CenB1A	DRSC28028	8.30e5	4.70e5	1.31e6	7.53e5	inactive

3 entries from above, reformatted:
CG31776 [DRSC00716]
- firefly reporter light, replicate 1: 1.22e5
- firefly reporter light, replicate 2: 1.46e5
- Renilla control light, replicate 1: 9.00e5
- Renilla control light, replicate 2: 1.01e6
- call: inactive

Ttd14 [DRSC06632]
- firefly reporter light, replicate 1: 4.72e5
- firefly reporter light, replicate 2: 5.15e5
- Renilla control light, replicate 1: 8.51e5
- Renilla control light, replicate 2: 6.70e5
- call: inactive

Ttd14 [DRSC06942]
- firefly reporter light, replicate 1: 1.64e5
- firefly reporter light, replicate 2: 2.05e5
- Renilla control light, replicate 1: 1.57e6
- Renilla control light, replicate 2: 2.15e6
- call: inactive

Continued:
gene	dsRNA	firefly reporter light, replicate 1	firefly reporter light, replicate 2	Renilla control light, replicate 1	Renilla control light, replicate 2	call
Cpr47Ef	DRSC06336	1.76e5	1.64e5	1.72e6	1.87e6	inactive
Cpr47Ef	DRSC22450	4.40e5	6.86e5	9.61e5	1.88e6	inactive
Cpr47Ef	DRSC25090	7.85e5	5.58e5	6.45e5	6.07e5	inactive
Cpr47Ef	DRSC25665	7.82e5	9.17e5	9.77e5	1.29e6	inactive
lncRNA:CR32661 + lncRNA:CR43157	DRSC19794	4.15e5	3.95e5	4.15e6	3.91e6	inactive
Tbc1d22	DRSC15867	85258	62163	5.99e5	6.59e5	inactive
sgg	DRSC17228	5.82e5	6.15e5	7.45e5	6.57e5	inactive
sgg	DRSC17722	8.26e5	6.29e5	7.27e5	5.75e5	inactive
sgg	DRSC18832	1.27e5	1.32e5	3.48e6	3.75e6	active
sgg	DRSC23946	3.29e5	2.71e5	8.89e5	4.21e5	active
sgg	DRSC37005					inactive
